No constants are given. Whether binding was seen depends on the method and setting. Binding seen in cells or lysates may run through a third protein. For some of these results: Where a sequence is shown, tags or fusion partners need not be part of it.
Columns and labels:
Assay in all cases: condition: only membrane extracts mixed post expression instead of co-expression; co-IP; proteins expressed in separate N. benthamiana leaves and membrane extracts mixed post expression (CCI1 post); IP with anti-GFP, blot with anti-FLAG
[1] = target: T1, BAM1-GFP (full-length) (Arabidopsis) (UniProt O49545)
T1 sequence: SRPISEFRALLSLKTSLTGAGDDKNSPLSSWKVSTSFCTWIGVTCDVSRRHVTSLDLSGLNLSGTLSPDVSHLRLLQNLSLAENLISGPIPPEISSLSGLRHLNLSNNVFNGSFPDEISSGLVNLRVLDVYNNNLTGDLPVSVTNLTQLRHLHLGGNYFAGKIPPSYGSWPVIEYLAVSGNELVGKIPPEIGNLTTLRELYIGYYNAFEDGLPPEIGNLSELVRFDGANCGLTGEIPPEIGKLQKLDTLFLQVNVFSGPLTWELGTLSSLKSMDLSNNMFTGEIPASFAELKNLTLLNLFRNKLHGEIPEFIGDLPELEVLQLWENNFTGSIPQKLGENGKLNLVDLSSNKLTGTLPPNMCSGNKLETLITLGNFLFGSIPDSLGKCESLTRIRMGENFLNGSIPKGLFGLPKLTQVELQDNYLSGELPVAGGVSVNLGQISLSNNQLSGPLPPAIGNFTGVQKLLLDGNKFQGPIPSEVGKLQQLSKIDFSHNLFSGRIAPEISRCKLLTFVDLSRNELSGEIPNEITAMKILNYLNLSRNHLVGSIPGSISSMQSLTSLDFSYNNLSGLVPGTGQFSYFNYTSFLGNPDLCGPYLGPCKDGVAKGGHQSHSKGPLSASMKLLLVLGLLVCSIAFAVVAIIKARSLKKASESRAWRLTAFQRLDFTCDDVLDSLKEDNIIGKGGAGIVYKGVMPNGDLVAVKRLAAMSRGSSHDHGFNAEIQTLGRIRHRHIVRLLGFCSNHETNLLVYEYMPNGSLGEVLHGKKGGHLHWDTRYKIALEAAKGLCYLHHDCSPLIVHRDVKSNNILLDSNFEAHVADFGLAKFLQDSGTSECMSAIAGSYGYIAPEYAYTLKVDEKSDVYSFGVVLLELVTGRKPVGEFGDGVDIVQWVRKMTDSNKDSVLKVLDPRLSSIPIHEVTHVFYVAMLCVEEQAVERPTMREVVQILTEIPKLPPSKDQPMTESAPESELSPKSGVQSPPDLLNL

Chains of the proteins cited; added tags and fusions are not shown. Lines headed by an entry give the natural chain unless they say otherwise; changes in a name come on top. Residues count along the entry.
UniProt O22476, residues 24-1196: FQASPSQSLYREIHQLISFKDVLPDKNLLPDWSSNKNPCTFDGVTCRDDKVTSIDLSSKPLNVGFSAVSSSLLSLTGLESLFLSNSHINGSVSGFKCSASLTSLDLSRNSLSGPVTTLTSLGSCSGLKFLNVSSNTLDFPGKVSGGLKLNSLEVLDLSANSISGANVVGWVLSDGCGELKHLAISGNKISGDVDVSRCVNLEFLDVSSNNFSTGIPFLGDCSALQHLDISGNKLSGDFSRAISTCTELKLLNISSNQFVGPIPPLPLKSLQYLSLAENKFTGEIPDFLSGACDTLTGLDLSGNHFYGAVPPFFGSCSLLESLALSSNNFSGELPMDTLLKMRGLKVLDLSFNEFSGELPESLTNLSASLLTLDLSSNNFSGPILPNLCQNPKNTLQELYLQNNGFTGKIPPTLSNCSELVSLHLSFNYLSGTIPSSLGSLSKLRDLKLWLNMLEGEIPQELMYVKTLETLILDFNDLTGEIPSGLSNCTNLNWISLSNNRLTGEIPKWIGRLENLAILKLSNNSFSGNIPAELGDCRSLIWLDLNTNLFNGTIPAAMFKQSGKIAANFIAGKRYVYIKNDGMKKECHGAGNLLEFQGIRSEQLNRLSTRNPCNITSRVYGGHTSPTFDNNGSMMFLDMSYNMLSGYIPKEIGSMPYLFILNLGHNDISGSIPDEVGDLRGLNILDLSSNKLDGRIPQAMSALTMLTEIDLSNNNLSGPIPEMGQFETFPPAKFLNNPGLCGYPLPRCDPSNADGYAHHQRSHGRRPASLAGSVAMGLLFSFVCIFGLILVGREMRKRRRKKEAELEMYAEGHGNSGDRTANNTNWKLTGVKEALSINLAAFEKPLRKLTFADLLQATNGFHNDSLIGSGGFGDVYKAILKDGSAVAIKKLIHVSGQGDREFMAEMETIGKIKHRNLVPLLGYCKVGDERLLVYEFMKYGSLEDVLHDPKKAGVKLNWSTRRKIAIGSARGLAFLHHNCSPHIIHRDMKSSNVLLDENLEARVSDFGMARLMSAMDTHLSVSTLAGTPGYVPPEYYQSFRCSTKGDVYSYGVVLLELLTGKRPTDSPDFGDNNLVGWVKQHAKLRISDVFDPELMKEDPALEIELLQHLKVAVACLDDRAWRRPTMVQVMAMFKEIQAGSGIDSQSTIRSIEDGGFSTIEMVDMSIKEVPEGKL
UniProt Q7DZ57: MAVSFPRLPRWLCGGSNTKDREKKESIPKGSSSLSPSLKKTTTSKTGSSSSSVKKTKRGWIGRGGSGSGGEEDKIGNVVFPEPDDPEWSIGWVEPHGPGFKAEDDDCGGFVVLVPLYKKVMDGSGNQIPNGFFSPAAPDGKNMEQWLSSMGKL

[2] = target: T2, BAM2-GFP (full-length) (Arabidopsis) (UniProt Q9M2Z1)
T2 sequence: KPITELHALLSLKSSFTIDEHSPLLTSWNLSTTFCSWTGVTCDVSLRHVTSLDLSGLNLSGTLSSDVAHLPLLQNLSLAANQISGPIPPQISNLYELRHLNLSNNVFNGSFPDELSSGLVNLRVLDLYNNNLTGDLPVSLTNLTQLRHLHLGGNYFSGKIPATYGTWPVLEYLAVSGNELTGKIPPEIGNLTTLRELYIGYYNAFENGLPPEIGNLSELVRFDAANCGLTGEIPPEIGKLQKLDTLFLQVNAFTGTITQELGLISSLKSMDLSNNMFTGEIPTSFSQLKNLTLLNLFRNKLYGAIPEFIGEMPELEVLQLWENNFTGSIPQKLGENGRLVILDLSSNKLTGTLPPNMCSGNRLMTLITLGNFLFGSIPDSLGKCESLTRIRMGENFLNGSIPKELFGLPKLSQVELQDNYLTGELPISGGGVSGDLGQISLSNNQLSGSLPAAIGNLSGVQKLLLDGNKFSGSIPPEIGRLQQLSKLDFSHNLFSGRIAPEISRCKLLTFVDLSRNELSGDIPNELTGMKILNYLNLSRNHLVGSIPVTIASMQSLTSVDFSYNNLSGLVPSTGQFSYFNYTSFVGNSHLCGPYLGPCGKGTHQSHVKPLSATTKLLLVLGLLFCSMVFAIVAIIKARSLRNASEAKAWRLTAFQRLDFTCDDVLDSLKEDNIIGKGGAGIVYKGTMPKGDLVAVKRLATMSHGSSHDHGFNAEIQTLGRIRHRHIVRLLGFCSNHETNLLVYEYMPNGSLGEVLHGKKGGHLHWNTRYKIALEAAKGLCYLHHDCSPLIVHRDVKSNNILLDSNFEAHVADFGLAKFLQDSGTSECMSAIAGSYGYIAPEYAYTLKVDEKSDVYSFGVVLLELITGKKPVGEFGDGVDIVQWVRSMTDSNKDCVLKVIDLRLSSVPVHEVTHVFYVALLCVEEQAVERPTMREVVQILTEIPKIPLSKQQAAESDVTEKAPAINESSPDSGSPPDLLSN

BRI1-GFP (full-length) = BRI1-GFP (full-length) (UniProt O22476)
[3] = target: T3, CLV2-GFP (full-length) (Arabidopsis) (UniProt O80809)
T3 sequence: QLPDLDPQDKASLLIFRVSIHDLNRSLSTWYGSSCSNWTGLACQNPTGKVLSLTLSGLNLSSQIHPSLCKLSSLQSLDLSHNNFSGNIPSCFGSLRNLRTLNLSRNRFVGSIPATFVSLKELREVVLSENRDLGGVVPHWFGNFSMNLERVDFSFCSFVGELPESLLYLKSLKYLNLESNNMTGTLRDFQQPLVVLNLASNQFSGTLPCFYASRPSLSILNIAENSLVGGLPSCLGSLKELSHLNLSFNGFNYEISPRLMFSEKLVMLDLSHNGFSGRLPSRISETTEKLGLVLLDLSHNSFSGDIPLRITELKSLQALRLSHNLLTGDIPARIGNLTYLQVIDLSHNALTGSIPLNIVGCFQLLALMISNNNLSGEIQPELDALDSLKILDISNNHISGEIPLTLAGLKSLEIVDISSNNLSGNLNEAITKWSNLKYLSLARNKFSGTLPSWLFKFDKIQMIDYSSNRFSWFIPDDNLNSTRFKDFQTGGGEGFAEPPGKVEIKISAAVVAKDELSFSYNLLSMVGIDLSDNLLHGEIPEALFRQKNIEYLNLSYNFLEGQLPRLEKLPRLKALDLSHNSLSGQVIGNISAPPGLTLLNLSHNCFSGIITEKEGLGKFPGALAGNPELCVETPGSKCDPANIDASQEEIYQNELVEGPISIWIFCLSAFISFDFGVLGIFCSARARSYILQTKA

binding [1]: no binding
binding [2]: no binding
binding (BRI1-GFP (full-length)): no binding
binding [3]: no binding
Substance: CCI1-FLAG (from UniProt Q7DZ57)
